Measured values: publication PMC11162468
No constants are given. Whether binding was seen depends on the method and setting. Binding seen in cells or lysates may run through a third protein. A result given as binding can be weak or reduced; the word gives no strength.

Chains of the proteins cited; added tags and fusions are not shown. Lines headed by an entry give the natural chain unless they say otherwise; changes in a name come on top. Residues count along the entry.
UniProt P06213, residues 28-1382: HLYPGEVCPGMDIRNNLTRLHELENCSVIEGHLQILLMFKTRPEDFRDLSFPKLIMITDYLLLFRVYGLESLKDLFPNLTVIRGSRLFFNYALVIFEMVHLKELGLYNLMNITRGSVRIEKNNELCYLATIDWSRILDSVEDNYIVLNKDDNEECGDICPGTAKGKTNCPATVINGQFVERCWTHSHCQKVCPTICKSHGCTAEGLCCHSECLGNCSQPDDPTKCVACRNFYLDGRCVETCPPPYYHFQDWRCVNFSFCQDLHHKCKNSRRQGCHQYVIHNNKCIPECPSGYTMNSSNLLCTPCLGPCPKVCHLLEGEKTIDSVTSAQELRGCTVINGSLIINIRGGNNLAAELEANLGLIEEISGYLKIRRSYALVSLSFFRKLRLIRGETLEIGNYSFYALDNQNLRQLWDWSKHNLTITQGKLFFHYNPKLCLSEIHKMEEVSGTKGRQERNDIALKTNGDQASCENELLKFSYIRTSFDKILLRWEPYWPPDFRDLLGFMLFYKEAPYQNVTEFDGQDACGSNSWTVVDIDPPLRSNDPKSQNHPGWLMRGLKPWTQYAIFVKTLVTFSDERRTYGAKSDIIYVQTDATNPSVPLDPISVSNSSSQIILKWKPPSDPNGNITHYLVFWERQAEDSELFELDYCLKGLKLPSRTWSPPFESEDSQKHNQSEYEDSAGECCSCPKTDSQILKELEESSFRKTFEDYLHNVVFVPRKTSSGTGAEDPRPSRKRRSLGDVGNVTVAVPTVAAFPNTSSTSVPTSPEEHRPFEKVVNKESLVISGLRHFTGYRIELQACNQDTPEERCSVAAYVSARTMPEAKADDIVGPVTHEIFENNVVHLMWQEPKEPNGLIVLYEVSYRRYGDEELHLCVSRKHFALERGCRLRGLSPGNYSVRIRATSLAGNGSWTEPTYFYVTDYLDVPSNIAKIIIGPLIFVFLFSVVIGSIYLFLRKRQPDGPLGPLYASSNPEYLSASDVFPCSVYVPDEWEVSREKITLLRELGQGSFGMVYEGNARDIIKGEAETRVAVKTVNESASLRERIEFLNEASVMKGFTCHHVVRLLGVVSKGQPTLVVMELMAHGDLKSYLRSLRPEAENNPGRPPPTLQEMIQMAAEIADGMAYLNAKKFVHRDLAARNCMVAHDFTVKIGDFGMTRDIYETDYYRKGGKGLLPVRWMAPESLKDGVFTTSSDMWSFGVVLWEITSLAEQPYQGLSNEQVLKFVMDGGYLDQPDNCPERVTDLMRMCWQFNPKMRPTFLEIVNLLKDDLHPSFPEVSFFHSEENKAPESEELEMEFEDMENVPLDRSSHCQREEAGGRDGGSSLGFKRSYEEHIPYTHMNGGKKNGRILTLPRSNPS
UniProt P06748: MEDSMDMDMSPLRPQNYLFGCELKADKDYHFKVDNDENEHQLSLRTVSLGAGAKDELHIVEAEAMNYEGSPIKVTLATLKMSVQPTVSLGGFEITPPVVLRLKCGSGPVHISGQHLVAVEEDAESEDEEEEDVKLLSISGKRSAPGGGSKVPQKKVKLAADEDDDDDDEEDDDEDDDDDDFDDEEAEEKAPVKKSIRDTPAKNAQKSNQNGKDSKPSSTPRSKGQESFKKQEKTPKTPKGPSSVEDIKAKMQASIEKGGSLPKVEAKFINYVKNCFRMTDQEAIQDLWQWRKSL
UniProt Q14974: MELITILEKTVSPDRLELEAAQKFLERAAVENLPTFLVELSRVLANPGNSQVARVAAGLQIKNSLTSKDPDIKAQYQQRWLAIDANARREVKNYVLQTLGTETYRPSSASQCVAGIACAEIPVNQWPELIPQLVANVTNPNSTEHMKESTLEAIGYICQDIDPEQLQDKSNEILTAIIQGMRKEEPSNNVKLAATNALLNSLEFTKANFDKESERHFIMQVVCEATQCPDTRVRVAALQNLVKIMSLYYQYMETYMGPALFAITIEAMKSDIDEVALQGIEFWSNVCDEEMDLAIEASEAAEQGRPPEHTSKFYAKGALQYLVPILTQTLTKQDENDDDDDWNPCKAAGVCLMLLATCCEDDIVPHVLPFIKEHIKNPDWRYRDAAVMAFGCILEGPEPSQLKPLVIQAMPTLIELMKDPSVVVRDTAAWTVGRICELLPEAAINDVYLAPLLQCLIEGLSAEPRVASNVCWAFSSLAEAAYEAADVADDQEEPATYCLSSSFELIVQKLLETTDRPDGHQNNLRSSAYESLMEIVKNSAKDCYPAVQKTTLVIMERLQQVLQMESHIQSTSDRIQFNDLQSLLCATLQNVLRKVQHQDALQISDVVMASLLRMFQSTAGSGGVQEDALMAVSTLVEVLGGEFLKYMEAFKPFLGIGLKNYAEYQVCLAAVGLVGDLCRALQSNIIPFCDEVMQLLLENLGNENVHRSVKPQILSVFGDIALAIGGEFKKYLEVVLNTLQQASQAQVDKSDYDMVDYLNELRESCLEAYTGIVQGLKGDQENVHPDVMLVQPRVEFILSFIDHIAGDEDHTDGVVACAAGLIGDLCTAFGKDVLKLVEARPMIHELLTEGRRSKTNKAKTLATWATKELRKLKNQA

Experiments:
[1] = molecular target: insulin receptor (IR) (human (endogenous in A549 and H226Br)) (UniProt P06213); experiment: co-IP; IGF2-stimulated A549 cells; endogenous proteins; association of IR with KPNB1 and KPNA2
[2] = molecular target: NPM1 deletion mutant lacking HBD (ΔHBD) (UniProt P06748); experiment: co-IP; H226Br cells expressing FLAG-tagged NPM1 (FL, truncation or deletion mutants), stimulated with IGF2 for 3 h; IP with an anti-FLAG antibody

| binding [1] | binding [2] | Substance |
| --- | --- | --- |
| binds | – | importin-1 (karyopherin subunit beta 1; KPNB1) (from UniProt Q14974) |
| – | binds | insulin receptor (IR) (from UniProt P06213-1 28-1382) |
